Test results published in PubChem BioAssay AID504834 (National Center for Advancing Translational Sciences (NCATS), 2011).
In all, about 320,000 compounds went through this assay and about 22,000 (6.9%) were called active. Inconclusive means that the source gave no clear call. Such entries were picked first, then a sample of the others. Calls come from the whole dose curve; as a rule, active = well fitted inhibition curve with a large enough effect; inconclusive = small, poorly fitted or top-dose-only effect, or another doubt; inactive = no such curve, though single readings can be large or run the other way. Potencies of inconclusive entries are doubtful fits and often do not repeat.

experiment: Primary qHTS for delayed death inhibitors of the malarial parasite plastid, 96 hour incubation; settings: P. falciparum luciferase reporter growth; series mostly up to 28.7 µM
In short: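 P. falciparum expressing integrated firefly luciferase, in erythrocytes at 2% hematocrit, 0.05% parasitemia, incubated with compounds 96 h at 37 C, 5% CO2. Growth inhibition read as loss of luminescence; two-generation exposure targets delayed-death apicoplast inhibitors.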
% is set by controls: 0 for no effect and ±100 for the full control effect; potency is the fitted concentration of half-maximal effect.

SMILES | Potency | activity change, negative = inhibition
O=S(=O)(c1ccccc1C(F)(F)F)N1CCC(n2cnc3ccccc32)CC1 | inconclusive: 14.7 µM [inhibitor, partial curve, poor fit] | –
CCSc1nc2ccccc2n1Cc1ccccc1F | inconclusive: 18.5 µM [inhibitor, single point] | –
Cc1ccc(S(=O)(=O)N(CCCN(C)C)Cc2ccc3c(c2)OCO3)cc1 | inactive | –
CCCc1nc2nc(C)c(NS(=O)(=O)c3ccc(Cl)cc3)c(=O)n2[nH]1 | inactive | –
Cc1cc(Br)cc(C)c1OCCCCN(C)C | inconclusive: 13.1 µM [inhibitor, single point] | –
Cc1cc(C)c2c(N=NN3CCCCC3)[nH]nc2n1 | inactive | –
COc1ccc(C2c3c(ncn(CCN4CCOCC4)c3=N)Oc3ccc4ccccc4c32)cc1OC (stereo unspecified) | active: 0.586 µM | –
O=C(Nc1ccnn1C1CCN(Cc2ccc(CO)o2)CC1)c1ccc2c(c1)OCO2 | inactive | –
C[C@@H]1C[C@H]2[C@@H]3C[C@H](F)C4=CC(=O)C=C[C@@]4(C)[C@]3(F)[C@H](O)C[C@]2(C)[C@@]1(O)C(=O)CO | inconclusive: 0.181 µM [inhibitor, partial curve, poor fit] | –
CCOC(=O)C1=C(N)Oc2c(oc(CO)cc2=O)C1c1ccc(Cl)cc1 (stereo unspecified) | inconclusive: 18.5 µM [inhibitor, single point] | –
COCCNC(=O)C(OC(=O)CC1Sc2ccccc2NC1=O)c1ccccc1 (stereo unspecified) | inconclusive: 8.28 µM [inhibitor, partial curve] | –
Cc1cc(OCc2nc(-c3ccncc3)no2)cc(C)c1Cl | inactive | –
Cc1ccc(NC(=O)COC(=O)c2ccc(CN3CCCC3=O)cc2)cc1C | inactive | –
Cc1cccc2cc(CN(CCN(C)C)C(=S)Nc3ccccc3)c(=O)[nH]c12 | inconclusive: 0.415 µM [inhibitor, partial curve, poor fit] | –
O=C(NC1CCC(O)CC1)C1CCN(S(=O)(=O)c2c(Cl)cccc2Cl)CC1 (stereo unspecified) | inconclusive: 11.7 µM [inhibitor, single point] | –
CC(=O)N1N=C(c2ccncc2)OC1(Cc1ccccc1)Cc1ccccc1 | active: 11.7 µM | –
COc1cccc(CN(C(=O)/C=C/c2ccco2)C2CCS(=O)(=O)C2)c1 (stereo unspecified) | inconclusive: 20.8 µM [inhibitor, single point] | –
Cn1c(=O)c2c(-c3cccc(Br)c3)c(C#N)c(N)nc2n(C)c1=O | inactive | –

SMILES | Potency | activity change, negative = inhibition
CCOCCCn1c(SCC(=O)NC(C)(C)C)nc2ccccc2c1=O | inconclusive: 9.28 µM [inhibitor, single point] | –
COc1cccc(Cn2c(=O)c3ccccc3n3nc(C)cc23)c1 | inconclusive: 11.7 µM [inhibitor, partial curve, poor fit] | –
COc1ccc(C(=O)N/C(=C\c2cn(C)c3ccccc23)C(=O)OCC(C)C)cc1 | inactive | –
CCOc1ccc(N(CC(=O)NCc2ccc(Cl)cc2)S(=O)(=O)c2ccccc2)cc1 | inconclusive: 9.28 µM [inhibitor, single point] | –
Cc1c[n+]([O-])n(-c2ccc(C(=O)O)cc2)n1 | inconclusive: 11.7 µM [inhibitor, single point] | –
CCN(CCCNC(=O)CN(C)S(=O)(=O)c1ccc2c(c1)CCC(=O)N2)c1cccc(C)c1 | inactive | –
O=C(CCCCn1c(=O)c2ccccc2n(Cc2ccc(F)cc2)c1=O)NCc1ccco1 | active: 3.29 µM | –
CC(C)(C)OC(=O)NCc1ccc(CNC(=O)c2nc[nH]c2C(=O)N2CCN(C(=O)OC(C)(C)C)CC2)cc1 | inconclusive: 11.7 µM [inhibitor, single point] | –
CN(C)S(=O)(=O)c1cccc(C(=O)NCc2ccco2)c1 | – | inactive: -7.82% [at 5.75 µM]
CC1(C)CC(=O)C2=C(C1)N(Cc1ccco1)C(=O)C2(NC(=O)c1cccnc1)C(F)(F)F (stereo unspecified) | inactive | –
CCCn1c(C(C)Nc2nc(C)cs2)nc2cc(Cl)c(Cl)cc21 (stereo unspecified) | inactive | –
FC(F)(F)c1cc(CO[C@@H]2CCCN[C@@H]2c2ccccc2)cc(C(F)(F)F)c1 | inconclusive: 10.4 µM [inhibitor, single point] | –
COc1nc(NC(C)(C)C)nc(Oc2ccc(=O)n(C)n2)n1 | active: 11.7 µM | –
O=C(O)CCCNc1ccc(S(=O)(=O)N2CCCCC2)cc1 | inactive | –
Cc1ccccc1C(=O)NC(=S)N(C)C1CCCCC1 | inconclusive: 18.5 µM [inhibitor, single point] | –
CCCCNS(=O)(=O)c1ccc(OCC(=O)N2CCN(Cc3ccc4c(c3)OCO4)CC2)cc1 | active: 10.4 µM | –
COC(=O)[C@H](Cc1ccccc1)NC(=O)O[C@@H]1C(=O)c2cc(OC)ccc2O[C@H]1c1ccc(OC)c(Br)c1 | inconclusive: 10.4 µM [inhibitor, single point] | –
Cc1ccc(NS(=O)(=O)c2ccc3[nH]c(=O)oc3c2)c(C)c1 | inconclusive: 3.7 µM [inhibitor, partial curve, poor fit] | –

2 entries picked at random from the list so far, as already listed:
SMILES | Potency | activity change, negative = inhibition
CCCn1c(C(C)Nc2nc(C)cs2)nc2cc(Cl)c(Cl)cc21 (stereo unspecified) | inactive | –
CC1(C)CC(=O)C2=C(C1)N(Cc1ccco1)C(=O)C2(NC(=O)c1cccnc1)C(F)(F)F (stereo unspecified) | inactive | –
